Measured values from article PMC9701038.
No constants are given. Whether binding was seen depends on the method and setting. Binding seen in cells or lysates may run through a third protein. Binding can be weak; no strength is given.

Target: T1, exogenous HOGA1 (human) (UniProt Q86XE5)
T1 sequence: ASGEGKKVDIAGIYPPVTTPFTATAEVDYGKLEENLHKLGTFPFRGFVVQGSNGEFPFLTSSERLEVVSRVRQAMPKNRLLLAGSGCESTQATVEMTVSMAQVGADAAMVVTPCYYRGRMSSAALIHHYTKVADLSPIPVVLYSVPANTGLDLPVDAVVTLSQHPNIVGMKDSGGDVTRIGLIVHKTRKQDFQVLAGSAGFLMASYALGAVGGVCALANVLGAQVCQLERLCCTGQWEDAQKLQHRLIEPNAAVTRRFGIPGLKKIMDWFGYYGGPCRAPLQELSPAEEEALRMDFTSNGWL
Assay: co-IP; exogenous tagged HOGA1 and LARPs in PANC-1 cells; lysis in 0.5% NP-40 buffer (50 mM Tris-HCl pH 7.5, 150 mM NaCl, 0.3% NONIDET P-40); Flag beads 3 h at 4 C; SDS-PAGE and western blot

exogenous LARP7 (human)
binding: binds
